Results from the supplement of paper PMC12819154, “High-throughput peptide-centric local stability assay extends protein–ligand identification to membrane proteins, tissues and bacteria” (Nature Structural & Molecular Biology, 2025).
This is one part of the list. Small differences around the control level are noise.

Chains of the proteins cited; added tags and fusions are not shown. Lines headed by an entry give the natural chain unless they say otherwise; changes in a name come on top.
UniProt Q8WVT3: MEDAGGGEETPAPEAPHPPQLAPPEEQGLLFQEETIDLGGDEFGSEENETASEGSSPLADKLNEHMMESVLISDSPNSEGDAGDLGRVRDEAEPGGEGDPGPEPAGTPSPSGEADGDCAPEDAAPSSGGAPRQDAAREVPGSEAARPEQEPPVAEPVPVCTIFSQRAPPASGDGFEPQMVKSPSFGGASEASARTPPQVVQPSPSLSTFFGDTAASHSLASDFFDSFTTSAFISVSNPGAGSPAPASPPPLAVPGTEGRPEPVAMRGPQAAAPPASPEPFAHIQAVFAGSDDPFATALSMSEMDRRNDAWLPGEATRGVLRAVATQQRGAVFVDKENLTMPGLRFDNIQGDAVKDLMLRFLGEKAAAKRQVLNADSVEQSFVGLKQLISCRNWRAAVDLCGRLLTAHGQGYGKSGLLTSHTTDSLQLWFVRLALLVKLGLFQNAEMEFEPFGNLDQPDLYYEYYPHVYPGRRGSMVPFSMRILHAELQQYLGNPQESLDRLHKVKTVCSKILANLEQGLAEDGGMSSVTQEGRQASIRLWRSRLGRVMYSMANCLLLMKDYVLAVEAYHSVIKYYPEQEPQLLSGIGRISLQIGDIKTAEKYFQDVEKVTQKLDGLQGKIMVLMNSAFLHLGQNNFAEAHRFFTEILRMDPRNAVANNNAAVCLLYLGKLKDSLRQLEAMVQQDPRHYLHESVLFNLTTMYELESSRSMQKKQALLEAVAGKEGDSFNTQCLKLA
UniProt Q8WVM8, whole entry, looked up: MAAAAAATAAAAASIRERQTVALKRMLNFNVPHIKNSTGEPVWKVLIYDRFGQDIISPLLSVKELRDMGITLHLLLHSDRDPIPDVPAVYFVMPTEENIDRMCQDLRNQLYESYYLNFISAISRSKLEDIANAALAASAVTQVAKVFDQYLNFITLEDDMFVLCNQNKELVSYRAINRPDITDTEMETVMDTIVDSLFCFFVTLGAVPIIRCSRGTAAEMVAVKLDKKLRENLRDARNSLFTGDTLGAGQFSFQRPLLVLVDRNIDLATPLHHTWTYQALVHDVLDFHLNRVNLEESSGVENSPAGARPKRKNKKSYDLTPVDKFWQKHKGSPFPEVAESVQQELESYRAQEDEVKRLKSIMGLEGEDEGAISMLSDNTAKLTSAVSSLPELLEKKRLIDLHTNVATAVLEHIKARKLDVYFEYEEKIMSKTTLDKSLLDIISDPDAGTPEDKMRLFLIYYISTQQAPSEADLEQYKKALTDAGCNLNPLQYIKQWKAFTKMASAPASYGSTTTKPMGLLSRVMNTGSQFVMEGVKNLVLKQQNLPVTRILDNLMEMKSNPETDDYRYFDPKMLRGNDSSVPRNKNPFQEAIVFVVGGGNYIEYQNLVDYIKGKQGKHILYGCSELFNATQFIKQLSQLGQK
UniProt Q8WTV1: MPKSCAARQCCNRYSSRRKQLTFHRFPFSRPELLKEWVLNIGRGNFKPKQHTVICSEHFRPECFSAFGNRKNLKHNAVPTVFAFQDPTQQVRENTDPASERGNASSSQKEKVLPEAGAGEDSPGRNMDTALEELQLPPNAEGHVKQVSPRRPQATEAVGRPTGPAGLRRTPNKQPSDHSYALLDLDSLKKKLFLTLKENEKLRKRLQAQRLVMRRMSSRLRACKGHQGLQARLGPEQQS
UniProt Q8WXH5: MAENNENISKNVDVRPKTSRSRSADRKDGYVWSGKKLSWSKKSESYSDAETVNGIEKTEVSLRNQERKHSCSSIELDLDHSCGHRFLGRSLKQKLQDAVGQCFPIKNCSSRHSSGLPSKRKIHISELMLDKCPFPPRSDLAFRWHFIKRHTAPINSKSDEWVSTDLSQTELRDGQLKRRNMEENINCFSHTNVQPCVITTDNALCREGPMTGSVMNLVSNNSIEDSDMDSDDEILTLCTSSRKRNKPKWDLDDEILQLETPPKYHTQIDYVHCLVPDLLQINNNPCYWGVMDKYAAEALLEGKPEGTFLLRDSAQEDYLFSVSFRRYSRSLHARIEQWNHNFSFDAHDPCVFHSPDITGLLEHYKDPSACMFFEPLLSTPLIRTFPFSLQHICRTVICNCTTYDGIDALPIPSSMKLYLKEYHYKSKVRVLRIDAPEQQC
UniProt Q8TE02: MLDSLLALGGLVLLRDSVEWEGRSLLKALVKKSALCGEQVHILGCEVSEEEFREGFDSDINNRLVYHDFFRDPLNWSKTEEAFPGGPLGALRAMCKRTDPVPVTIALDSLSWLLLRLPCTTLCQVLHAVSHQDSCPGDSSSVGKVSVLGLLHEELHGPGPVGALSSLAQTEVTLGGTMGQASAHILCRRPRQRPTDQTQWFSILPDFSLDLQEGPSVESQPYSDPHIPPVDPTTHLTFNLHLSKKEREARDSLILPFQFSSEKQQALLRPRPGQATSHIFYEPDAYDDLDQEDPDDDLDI
UniProt Q8WZA0: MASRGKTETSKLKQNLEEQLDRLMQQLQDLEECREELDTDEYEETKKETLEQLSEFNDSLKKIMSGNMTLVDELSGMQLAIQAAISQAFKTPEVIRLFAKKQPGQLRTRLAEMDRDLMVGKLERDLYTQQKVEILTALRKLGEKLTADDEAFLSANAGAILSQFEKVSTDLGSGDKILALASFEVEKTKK
UniProt Q8WVL7: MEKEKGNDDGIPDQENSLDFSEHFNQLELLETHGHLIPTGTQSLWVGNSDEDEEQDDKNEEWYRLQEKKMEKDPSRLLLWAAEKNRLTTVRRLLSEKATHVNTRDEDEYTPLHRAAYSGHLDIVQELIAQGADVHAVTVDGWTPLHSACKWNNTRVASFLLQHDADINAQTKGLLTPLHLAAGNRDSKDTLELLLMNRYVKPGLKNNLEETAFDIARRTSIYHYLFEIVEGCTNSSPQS
UniProt Q8WUE5: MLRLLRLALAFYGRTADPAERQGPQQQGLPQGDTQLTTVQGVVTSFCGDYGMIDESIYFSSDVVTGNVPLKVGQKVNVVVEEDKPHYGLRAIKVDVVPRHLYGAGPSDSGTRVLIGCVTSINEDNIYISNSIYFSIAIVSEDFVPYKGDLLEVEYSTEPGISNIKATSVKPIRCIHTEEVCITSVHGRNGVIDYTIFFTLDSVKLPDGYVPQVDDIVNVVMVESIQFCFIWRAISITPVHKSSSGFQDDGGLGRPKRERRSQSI
UniProt Q8TEU7: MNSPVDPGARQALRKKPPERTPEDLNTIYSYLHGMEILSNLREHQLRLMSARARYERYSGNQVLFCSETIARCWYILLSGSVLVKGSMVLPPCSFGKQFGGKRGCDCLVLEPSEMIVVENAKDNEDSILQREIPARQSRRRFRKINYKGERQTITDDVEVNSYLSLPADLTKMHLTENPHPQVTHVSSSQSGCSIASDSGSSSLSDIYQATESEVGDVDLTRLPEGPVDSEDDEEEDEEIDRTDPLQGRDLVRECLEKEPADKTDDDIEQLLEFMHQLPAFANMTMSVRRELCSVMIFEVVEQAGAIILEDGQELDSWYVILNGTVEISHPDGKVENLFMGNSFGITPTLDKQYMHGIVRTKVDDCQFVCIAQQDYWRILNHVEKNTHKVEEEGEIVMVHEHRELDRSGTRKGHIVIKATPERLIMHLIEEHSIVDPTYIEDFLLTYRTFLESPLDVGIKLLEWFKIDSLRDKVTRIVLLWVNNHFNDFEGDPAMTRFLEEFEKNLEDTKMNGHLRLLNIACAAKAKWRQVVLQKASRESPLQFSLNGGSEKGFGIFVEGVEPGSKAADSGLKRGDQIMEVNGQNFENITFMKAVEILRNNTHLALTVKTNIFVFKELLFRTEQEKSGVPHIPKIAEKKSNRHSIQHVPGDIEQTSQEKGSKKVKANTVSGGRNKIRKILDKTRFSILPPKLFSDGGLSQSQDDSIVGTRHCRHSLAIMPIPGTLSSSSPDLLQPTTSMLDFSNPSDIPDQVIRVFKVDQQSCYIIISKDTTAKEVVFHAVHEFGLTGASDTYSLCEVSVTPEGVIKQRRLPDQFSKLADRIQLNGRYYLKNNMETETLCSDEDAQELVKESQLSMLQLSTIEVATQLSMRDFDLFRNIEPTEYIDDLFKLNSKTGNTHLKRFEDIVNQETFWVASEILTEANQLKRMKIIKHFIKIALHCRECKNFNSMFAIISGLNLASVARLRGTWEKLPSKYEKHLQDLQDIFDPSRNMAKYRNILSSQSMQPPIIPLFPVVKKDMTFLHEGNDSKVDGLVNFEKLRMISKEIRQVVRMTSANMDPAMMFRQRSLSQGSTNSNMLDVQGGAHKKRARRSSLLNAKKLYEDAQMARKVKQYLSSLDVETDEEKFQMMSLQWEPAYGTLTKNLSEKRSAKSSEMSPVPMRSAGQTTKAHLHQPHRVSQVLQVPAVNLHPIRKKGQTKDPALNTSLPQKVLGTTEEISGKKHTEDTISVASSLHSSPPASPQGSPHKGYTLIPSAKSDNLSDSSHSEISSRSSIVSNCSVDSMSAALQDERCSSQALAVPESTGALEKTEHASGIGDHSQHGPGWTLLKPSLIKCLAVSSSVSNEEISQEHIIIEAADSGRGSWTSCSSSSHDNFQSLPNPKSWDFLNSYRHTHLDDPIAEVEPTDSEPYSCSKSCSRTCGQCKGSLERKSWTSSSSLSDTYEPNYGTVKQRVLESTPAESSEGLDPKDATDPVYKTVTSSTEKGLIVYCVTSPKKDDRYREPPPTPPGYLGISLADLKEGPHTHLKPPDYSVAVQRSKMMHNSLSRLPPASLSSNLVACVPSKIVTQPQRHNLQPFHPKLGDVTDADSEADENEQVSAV

Compound: CN[C@@H]1C[C@H]2O[C@@](C)([C@@H]1OC)n1c3ccccc3c3c4c(c5c6ccccc6n2c5c31)C(=O)NC4 [staurosporine]
Test: log2 fold change of tryptic peptide abundance, ligand vs vehicle (limited proteolysis) (log2 ratio); higher = more trypsin-susceptible (destabilized)
Conditions: ligand concentration: 20 uM; sample: K562 cleared lysate; digestion: 4 min, 22 C (HT-PELSA RT4min, Orbitrap Astral)

Row | Target | log2 fold change
1 | UniProt Q8WVT3 (peptide sequence: SPSFGGASEASAR, peptide start residue: 182) | 0.177
2 | SCFD1 (peptide sequence: RLIDLHTNVATAVLEHIK, peptide start residue: 397) (UniProt Q8WVM8) | 0.542
3 | THAP3 (peptide sequence: RPQATEAVGRPTGPAGLR, peptide start residue: 151) (UniProt Q8WTV1) | 0.241
4 | UniProt Q8WXH5 (peptide sequence: PEGTFLLR, peptide start residue: 399) | -0.054
5 | UniProt Q8TE02 (peptide sequence: LVYHDFFRDPLNWSK, peptide start residue: 80) | -0.522
6 | LZIC (peptide sequence: DLYTQQKVEILTALRK, peptide start residue: 125) (UniProt Q8WZA0) | 0.0926
7 | ANKRD49 (peptide sequence: NNLEETAFDIARR, peptide start residue: 206) (UniProt Q8WVL7) | 0.608
8 | CT55 (peptide sequence: HLYGAGPSDSGTR, peptide start residue: 100) (UniProt Q8WUE5) | -0.262
9 | DMXL2 (peptide sequence: GDPQWSELR, peptide start residue: 1623) (UniProt Q8TDJ6) | -0.246
10 | RAPGEF6 (peptide sequence: AHLHQPHR, peptide start residue: 1170) (UniProt Q8TEU7) | 0.203

Not a retest: an excerpt of the list.
Row | Target | log2 fold change
9 | DMXL2 (peptide sequence: GDPQWSELR, peptide start residue: 1623) (UniProt Q8TDJ6) | -0.246
10 | RAPGEF6 (peptide sequence: AHLHQPHR, peptide start residue: 1170) (UniProt Q8TEU7) | 0.203
